According to patent publication US20130218474A1, “Benchmarks for Normal Cell Identification” (priority 2012, published 2013):

System: GM-CSF_pSTAT5
Assay: cells
Conditions: read-out: GM-CSF_pSTAT5 inhibition IC50

IC50: ~300 nM
Structure (SMILES): C[C@@H]1CCN(C(=O)CC#N)C[C@@H]1N(C)c1ncnc2[nH]ccc12 [CP690550]
